Data: PMC11528048
Results are given in words; binding and its absence hold for the method and conditions named. Some binding calls cover weakened binding; strength is not graded here.

How the values were obtained:
Assay in all cases: two-hybrid; baits fused to Gal4BD, preys fused to Gal4AD, co-transformed into reporter strain PJ69-4A; growth on SC-Trp-Leu-His (HIS3, weak/moderate) and SC-Trp-Leu-Ade (ADE2, strong), 3 days at 30 °C
[1] = target: T1, KKE/D domain of Nop58 (Nop58(451-511)) (S. cerevisiae) (UniProt Q12499)
T1 sequence: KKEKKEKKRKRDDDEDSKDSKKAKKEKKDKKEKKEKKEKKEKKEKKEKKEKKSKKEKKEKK

[2] = target: T2, KKE/D domain of Rpa34 (Rpa34(183-233)) (S. cerevisiae) (UniProt P47006)
T2 sequence: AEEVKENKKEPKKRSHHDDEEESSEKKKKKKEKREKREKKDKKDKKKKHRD

Nop58 (S. cerevisiae) = target: T3, Nop58 (S. cerevisiae) (UniProt Q12499)
T3 sequence: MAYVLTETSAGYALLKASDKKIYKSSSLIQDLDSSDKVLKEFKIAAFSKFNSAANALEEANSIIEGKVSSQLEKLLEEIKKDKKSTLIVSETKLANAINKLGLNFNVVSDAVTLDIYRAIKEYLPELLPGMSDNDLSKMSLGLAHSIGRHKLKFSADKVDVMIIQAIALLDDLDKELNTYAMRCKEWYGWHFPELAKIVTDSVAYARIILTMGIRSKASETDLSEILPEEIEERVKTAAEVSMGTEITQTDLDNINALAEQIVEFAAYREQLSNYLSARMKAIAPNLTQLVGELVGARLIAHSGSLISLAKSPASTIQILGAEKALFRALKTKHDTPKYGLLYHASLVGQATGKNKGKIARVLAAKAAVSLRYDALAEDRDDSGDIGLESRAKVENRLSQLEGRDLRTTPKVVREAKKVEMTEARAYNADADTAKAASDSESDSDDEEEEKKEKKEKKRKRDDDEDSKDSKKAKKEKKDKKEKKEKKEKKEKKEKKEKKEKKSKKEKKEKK

[3] = target: T4, KKE/D domain of Nop56 (Nop56(441-504)) (S. cerevisiae) (UniProt Q12460)
T4 sequence: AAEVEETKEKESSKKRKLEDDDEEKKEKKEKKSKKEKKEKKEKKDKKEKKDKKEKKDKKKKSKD

Nop56 (S. cerevisiae) = target: T5, Nop56 (S. cerevisiae) (UniProt Q12460)
T5 sequence: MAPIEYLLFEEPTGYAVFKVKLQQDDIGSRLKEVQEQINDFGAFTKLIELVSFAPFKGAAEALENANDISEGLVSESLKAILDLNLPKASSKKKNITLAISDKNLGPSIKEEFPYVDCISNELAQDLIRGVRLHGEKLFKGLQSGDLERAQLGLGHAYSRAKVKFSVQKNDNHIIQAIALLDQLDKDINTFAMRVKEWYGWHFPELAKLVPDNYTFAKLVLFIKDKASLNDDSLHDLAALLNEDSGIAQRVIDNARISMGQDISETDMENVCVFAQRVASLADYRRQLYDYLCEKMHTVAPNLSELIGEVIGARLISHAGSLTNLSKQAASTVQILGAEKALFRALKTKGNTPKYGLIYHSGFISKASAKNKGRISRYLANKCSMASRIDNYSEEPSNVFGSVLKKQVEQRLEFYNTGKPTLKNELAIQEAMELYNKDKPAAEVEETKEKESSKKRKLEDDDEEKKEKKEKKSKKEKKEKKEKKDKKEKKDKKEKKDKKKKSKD

[4] = target: T6, KKE/D repeats of Pxr1 (Pxr1(172-213)) (S. cerevisiae) (UniProt P53335)
T6 sequence: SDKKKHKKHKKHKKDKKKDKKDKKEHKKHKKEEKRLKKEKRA

[5] = target: T7, KKE/D repeats of Cbf5 (Cbf5(433-483)) (S. cerevisiae) (UniProt P33322)
T7 sequence: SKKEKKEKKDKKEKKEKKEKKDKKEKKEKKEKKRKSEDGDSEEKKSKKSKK

Measured: binding

B1: KKE/D domain of Nop58 (Nop58(451-511)) (domain or fragment, UniProt Q12499 451-511)
chain: T1 sequence
binds: [1] | [2]

B2: full-length Pxr1 (protein, UniProt P53335 1-271)
chain: MGLAATRTKQRFGLDPRNTAWSNDTSRFGHQFLEKFGWKPGMGLGLSPMNSNTSHIKVSIKDDNVGLGAKLKRKDKKDEFDNGECAGLDVFQRILGRLNGKESKISEELDTQRKQKIIDGKWGIHFVKGEVLASTWDPKTHKLRNYSNAKKRKREGDDSEDEDDDDKEDKDSDKKKHKKHKKHKKDKKKDKKDKKEHKKHKKEEKRLKKEKRAEKTKETKKTSKLKSSESASNIPDAVNTRLSVRSKWIKQKRAALMDSKALNEIFMITND
binds: Nop58 (S. cerevisiae) | [3] | Nop56 (S. cerevisiae) | [4] | [1] | [5]

B3: Pxr1's isolated KKE/D domain (Pxr1(149-271)) (domain or fragment, UniProt P53335 149-271)
chain: AKKRKREGDDSEDEDDDDKEDKDSDKKKHKKHKKHKKDKKKDKKDKKEHKKHKKEEKRLKKEKRAEKTKETKKTSKLKSSESASNIPDAVNTRLSVRSKWIKQKRAALMDSKALNEIFMITND
binds: [3] | [4] | [1] | [5]

B4: KKE/D repeats of Pxr1 (Pxr1(172-213)) (domain or fragment, UniProt P53335 172-213)
chain: T6 sequence
binds: [2]

B5: KKE/D domain of Nop56 (Nop56(441-504)) (domain or fragment, UniProt Q12460 441-504)
chain: T4 sequence
binds: [3] | [2]
